These are literature values, as cited in patent US12465564B2, “Oral and nasal compositions and methods of treatment” (AQUESTIVE THERAPEUTICS, INC., priority 2021, dated 2025).

Structures are written as SMILES.

One series deals with seizure threshold. The settings on record: rats; estimated threshold.
For series [1] the following is noted: oral, following a moderate fat meal, per the Valium label.

As for `CN1C(=O)CN=C(c2ccccc2)c2cc(Cl)ccc21` [diazepam], the “plasma diazepam concentration associated with an elevation in seizure threshold” value with seizure threshold is roughly 70 ng/mL.
Take `CN1C(=O)CN=C(c2ccccc2)c2cc(Cl)ccc21` [Valium, diazepam]: in series [1], the “reduction in AUC” value is 27% and the “reduction in Cmax” value was 20%.
